Hit rate of the full screen: of about 300,000 compounds, about 3,700 (1.2%) were called active. Inconclusive results, whose numbers are uncertain, are shown with a selection of clear calls. Calls come from the whole dose curve; tested in HEK293 cells. Where the call is inconclusive, the potency comes from a doubtful curve fit.
Assay: qHTS for Inhibitors of binding or entry into cells for Lassa Virus; note: nearly all actives have a fitted effect of over 50% in size
Conditions: Lassa virus pseudotype entry inhibition, cell reporter; series mostly up to 37.9 µM
Potency is the fitted concentration of half-maximal effect.

Row | SMILES | Potency
1 | O=C(O)Cc1csc(Nc2cccc(Cl)c2)n1 | inconclusive: 1.26 µM [activator, partial curve]
2 | COCCn1c(-c2ccccc2)cnc1SCC(=O)Nc1cccc2ccccc12 | inconclusive: 28.2 µM [inhibitor, partial curve, poor fit]
3 | ClCc1csc(-c2ccccc2Cl)n1 | inactive
4 | COc1cccc(N2CCN(C(=O)c3ccc(NC(=O)c4nsc5ccccc45)cc3)CC2)c1 | inconclusive: 0.891 µM [activator, full curve, poor fit]
5 | CCc1ccc(OCC(=O)NC(NC(=S)Nc2ccccc2C)C(Cl)(Cl)Cl)cc1 (centres undefined) | inconclusive: 28.2 µM [inhibitor, partial curve, poor fit]
6 | COCc1cc(CNC(=O)C2CCC(=O)N(Cc3ccccc3F)C2)[nH]n1 (centres undefined) | inconclusive: 2.82 µM [activator, full curve]
7 | COc1ccc(C2CC(c3ccc4ccccc4c3)=NN2C(=O)CN2C(=O)CCC2=O)cc1 (centres undefined) | inconclusive: 35.5 µM [inhibitor, single point]
8 | O=C(Nc1ccccc1O)c1csc2c1CCCC2 | inconclusive: 5.01 µM [activator, partial curve, poor fit]
9 | Cc1ccc(-c2ccc(/C=N/NC(=S)Nc3ccccc3)o2)cc1[N+](=O)[O-] | inconclusive: 5.8 µM [inhibitor, partial curve, poor fit]
10 | COc1cccc(N2CCN(S(=O)(=O)c3ccc(-c4ccno4)cc3OC)CC2)c1 | inconclusive: 35.5 µM [inhibitor, single point]
11 | CCC(C)c1ccc(C(C)NC(=S)NC2CCCCC2)cc1 (centres undefined) | inconclusive: 35.5 µM [inhibitor, single point]
12 | COc1ccc(OC)c(C2NC(=O)NC(C)=C2C(=O)Nc2ccc(F)cc2)c1 (centres undefined) | inactive
13 | CC(=O)Nc1ccc(NC(=O)C(Cc2ccccc2)NC(=O)C2CCC(C)CC2)cc1 (centres undefined) | inactive
14 | CCOc1ccccc1C(=O)NC1CC2CCCC(C1)N2Cc1nnnn1Cc1ccco1 (centres undefined) | inconclusive: 23.1 µM [inhibitor, single point]
15 | Fc1ccccc1Cc1noc(CN2CCC(OCc3cccnc3)CC2)n1 | inconclusive: 1.12 µM [inhibitor, partial curve, poor fit]
16 | COC(=O)C1C(O)=C(C(C)=N)C(=O)CC1(C)C (centres undefined) | inactive
17 | O=C(CSc1nc(-c2ccc(F)cc2)cc(C(F)(F)F)n1)NCCc1ccccc1 | inactive
18 | N#Cc1nc(-c2ccc(Cl)cc2)oc1N1CCCCC1 | inconclusive: 5.8 µM [activator, partial curve, poor fit]
19 | Cc1nn(C)c(C(=O)NC(=S)Nc2ccccc2O)c1Cl | inactive
20 | CCN(CC)c1nc(OCCNC(=O)Nc2ccccc2)nc(N(CC)CC)n1 | inconclusive: 15.8 µM [inhibitor, single point]
21 | CCc1cccc(Nc2ncnc3onc(-c4ccc(F)cc4)c23)c1 | inactive
22 | COC(=O)c1ccccc1CON1C(=O)C(C)(C)N(OCc2ccccc2C(=O)OC)C(=O)C1(C)C | inactive
23 | Cc1ccc(NC(=O)CSc2nc(-c3ccccc3Cl)nc3cc(=O)[nH]n23)c(C)c1 | inactive

Row | SMILES | Potency
24 | Clc1cccc(Cl)c1Cn1cnc2c(NCc3ccco3)ncnc21 | inconclusive: 3.26 µM [inhibitor, partial curve, poor fit]
25 | COc1ccc(-c2csc(N3CCN(c4cc(C)nc5ccccc45)CC3)n2)cc1OC | inconclusive: 4.47 µM [inhibitor, full curve, poor fit]
26 | Cc1ccc(NC(=O)c2ccc(NC(=O)N3CCSc4ncccc43)cc2)c(C)c1 | inconclusive: 10 µM [activator, partial curve]
27 | O=C(O)Cc1ccc(NC(=O)C2CCCCC2C(=O)O)cc1 (centres undefined) | inconclusive: 25.9 µM [activator, partial curve, poor fit]
28 | COc1ccc(CN2C[C@H](COCc3ccccc3)Oc3cccc(N4CCCC4)c3S2(=O)=O)cc1 | inconclusive: 4.99 µM [inhibitor, full curve, poor fit]
29 | Cc1ccccc1CSCC(=O)NCc1ccco1 | inconclusive: 31.6 µM [inhibitor, single point]
30 | Fc1ccccc1/C=C1\CCCC2=C1NC(=S)NC2c1ccccc1F (centres undefined) | inconclusive: 35.5 µM [inhibitor, single point]
31 | NC(=O)CSc1nnc(COc2ccccc2)n1CCc1ccccc1 | inconclusive: 0.0366 µM [activator, full curve, poor fit]
32 | C=CCNc1nnc(SCC(=O)Nc2ccccc2OC)c2ccccc12 | inconclusive: 6.31 µM [inhibitor, single point]
33 | CC(C)OCCCNC(=O)c1ccc2c(c1)S(=O)(=O)c1ccccc1C2=O | inactive
34 | O=C(NCCC1=CCCCC1)c1ccc(F)cc1 | active: 10 µM
35 | c1ccc(CN2CCN(CCCNc3ccc4nnc(-c5ccccc5)n4n3)CC2)cc1 | inconclusive: 20.6 µM [inhibitor, partial curve, poor fit]
36 | COc1cc(CNCCN2CCOCC2)ccc1OCc1cccc(Cl)c1 | inconclusive: 22.4 µM [inhibitor, single point]
37 | COc1ccc(CNC(=O)CCc2nc(-c3ccc(C)cc3)no2)c(OC)c1 | inactive
38 | COCCOC(=O)C1=C(C)NC(=O)NC1c1ccc(-c2cc(Cl)ccc2Cl)o1 (centres undefined) | inconclusive: 7.08 µM [inhibitor, full curve, poor fit]
39 | O=[N+]([O-])/C(C(Cl)=C(Cl)Cl)=C1\Nc2ccccc2O1 | inactive
40 | Cc1ccccc1NC(=O)c1cc(-c2ccco2)nc2ccccc12 | inconclusive: 35.5 µM [inhibitor, partial curve, poor fit]
41 | COC(=O)CCCC(=O)Nc1c(F)c(F)c(F)c(F)c1F | inconclusive: 6.51 µM [inhibitor, single point]
42 | Cc1ccc(-c2cc(-c3ccc(C)cc3)[n+](C)o2)cc1 | active: 11.6 µM
43 | Cc1c(C)c2ccc(O[C@@H]3O[C@H](CO)[C@@H](O)[C@H](O)[C@H]3O)c(C)c2oc1=O | inconclusive: 5.01 µM [inhibitor, single point]
44 | CCN(CC)c1ccc(NC(=O)CSc2nnc3nc(C)cc(C)n23)cc1 | inactive
45 | Cc1cc2cc(C(c3nnnn3C3CCCC3)N(Cc3cccnc3)Cc3ccco3)c(=O)[nH]c2cc1C (centres undefined) | inconclusive: 16.4 µM [inhibitor, single point]
46 | Cc1cc[n+](C(C)C(=O)c2ccc(Cl)cc2)cc1 (centres undefined) | inactive

Some of the entries above in another layout.

| Row | SMILES | Potency |
| --- | --- | --- |
| 26 | Cc1ccc(NC(=O)c2ccc(NC(=O)N3CCSc4ncccc43)cc2)c(C)c1 | inconclusive: 10 µM [activator, partial curve] |
| 31 | NC(=O)CSc1nnc(COc2ccccc2)n1CCc1ccccc1 | inconclusive: 0.0366 µM [activator, full curve, poor fit] |
| 43 | Cc1c(C)c2ccc(O[C@@H]3O[C@H](CO)[C@@H](O)[C@H](O)[C@H]3O)c(C)c2oc1=O | inconclusive: 5.01 µM [inhibitor, single point] |

(next part)

Row | SMILES | Potency
47 | O=C(Nc1ccc(C2CC2(Cl)Cl)cc1)c1cccc([N+](=O)[O-])c1 (centres undefined) | inconclusive: 35.5 µM [inhibitor, single point]
48 | COc1ccccc1C1C(C#N)=C(N)N(c2cccnc2)C2=C1C(=O)CC(C)(C)C2 (centres undefined) | inactive
49 | Cc1cc(/C=C(/C#N)C(=O)Nc2ccccc2)c(C)n1-c1cccnc1 | inconclusive: 3.55 µM [activator, single point]
50 | COc1ccc(NC(=O)c2cncc(Br)c2)cc1S(=O)(=O)N1CCCCC1 | inconclusive: 3.16 µM [inhibitor, single point]
51 | CN(C)c1ccc(CNC2CC(C)(C)NC(C)(C)C2)cc1 | active: 11.6 µM
52 | COc1ccccc1NC(=O)Cn1c(=O)n(CCCCCC(=O)NCc2ccccc2)c(=O)c2sccc21 | inactive
53 | CCOC(=O)c1c(C)oc2nc(C)nc(NCc3ccccc3OC)c12 | inactive
54 | CCCC(=O)Nc1cc(C(F)(F)F)ccc1N1CCOCC1 | inconclusive: 28.2 µM [inhibitor, single point]
55 | O=C(COC(=O)c1ccccc1Nc1ccccc1)Nc1ccccc1 | inactive
56 | Cc1cc([N+](=O)[O-])ccc1NCc1cccc([N+](=O)[O-])c1 | inconclusive: 29.1 µM [inhibitor, single point]
57 | CCOC(=O)C1=C(COC(=O)C(C)(C)Oc2ccc(Cl)cc2)NC(=O)NC1C (centres undefined) | inconclusive: 35.5 µM [activator, single point]
58 | CN(Cc1nc(-c2ccc(C(F)(F)F)cc2)no1)C1CCOCC1 | inactive
59 | Cc1nc2c(ccc3nc(NC(=O)Cc4cccc5ccccc45)sc32)s1 | inconclusive: 0.517 µM [inhibitor, full curve, poor fit]
60 | COc1ccccc1NC(=O)Cn1nnc(-c2ccccc2NC(=O)c2ccco2)n1 | inconclusive: 12.6 µM [inhibitor, single point]
61 | O=C(Nc1ncc(S(=O)(=O)c2ccc([N+](=O)[O-])cc2)s1)c1ccc2ccccc2c1 | inactive
62 | CC1Cc2cc(S(=O)(=O)N(Cc3ccccc3)C(C)C)ccc2N1C(=O)C1CCC1 (centres undefined) | inconclusive: 3.55 µM [inhibitor, partial curve, poor fit]
63 | CC(C)C(=O)Nc1ccc(-c2nc3cccnc3o2)cc1 | inconclusive: 29.1 µM [inhibitor, single point]
64 | O=C(Cc1ccccc1)Oc1ccc([N+](=O)[O-])cc1 | inconclusive: 1.26 µM [inhibitor, partial curve, poor fit]
65 | Cc1ccc(CN2C(=O)c3ccccc3Sc3ccc(C(=O)OCc4ccco4)cc32)cc1 | inactive
66 | O=S(=O)(c1ccc(N2CCCC2)cc1)C(F)(F)F | inactive
67 | CCn1c(CCl)nc2cc(S(=O)(=O)N3CCOCC3)ccc21 | inconclusive: 35.5 µM [inhibitor, single point]
68 | O=C(c1ccc(C(F)(F)F)cc1)N1CCC(=O)N(C(COCc2ccc(C(F)(F)F)cc2)Cc2ccccc2)CC1 (centres undefined) | inconclusive: 2.06 µM [inhibitor, full curve]
69 | O=C(CCCCC(=O)NCCc1ccccc1)NCCc1ccccc1 | inconclusive: 12.6 µM [inhibitor, partial curve, poor fit]

A section of the results above, as a working copy:
Row | SMILES | Potency
44 | CCN(CC)c1ccc(NC(=O)CSc2nnc3nc(C)cc(C)n23)cc1 | inactive
45 | Cc1cc2cc(C(c3nnnn3C3CCCC3)N(Cc3cccnc3)Cc3ccco3)c(=O)[nH]c2cc1C (centres undefined) | inconclusive: 16.4 µM [inhibitor, single point]
